# PMC7819943, “Rice protein-binding microarrays: a tool to detect cis-acting elements near promoter regions in rice”
# The chains behind the UniProt entries cited, without tags or fusion partners.
# UniProt Q0JBA9, entry or part of it: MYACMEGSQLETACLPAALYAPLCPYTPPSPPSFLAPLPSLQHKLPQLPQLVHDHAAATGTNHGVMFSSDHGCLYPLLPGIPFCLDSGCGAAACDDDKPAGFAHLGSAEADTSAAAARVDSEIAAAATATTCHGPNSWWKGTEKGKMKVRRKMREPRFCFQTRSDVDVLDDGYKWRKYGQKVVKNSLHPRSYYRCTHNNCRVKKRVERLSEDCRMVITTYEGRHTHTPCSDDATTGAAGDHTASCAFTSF
# The other results are listed elsewhere or left out.
# Target: OsWRKY34 (Oryza sativa, UniProt Q0JBA9 1-250)
# Experiment: protein-binding microarray (RPBM); PBS, 2% BSA, 51.3 ng/ul salmon testes DNA, 50 uM zinc acetate, 200 nM TF, 25 C, 1 h; high values mean tight binding
# Details: protein: recombinant; tags: N-terminal polyhistidine and DsRed monomer fusion (pET32a); label: CyDye5-dUTP incorporated in the synthesized complementary strand; 3' TTTTT single-stranded linker to array surface; dsDNA, one strand shown
# In short: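 The binding signal is fluorescence intensity per array feature (arbitrary units). Readings came from an Axon 4000B scanner after a washed, 2% BSA-blocked, double-stranded custom Agilent array had been incubated for 1 h at 25 °C with 200 nM protein and 50 µM zinc acetate. The protein was a Ni–NTA-purified transcription factor fused N-terminally to polyhistidine and DsRed, expressed in E. coli BL21-CodonPlus.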
row,Sequence,binding signal
1,TTTTACTTTTGATTGTAACGCGTTTTGGTTTAATTAGTACCGGAGTCACCTAGTGCAG,9910 fluorescence intensity (a.u.)
2,CTTGGGCCCCACCTGACAGCGACCGGTCCAACCGCTAACCCGGAGTCACCTAGTGCAG,8220 fluorescence intensity (a.u.)
3,TCCATCTTATCTCCGCGTCCGCCTCGCGCCACCGCCGCCTCGGAGTCACCTAGTGCAG,9800 fluorescence intensity (a.u.)
4,CGTCCAGCCCGACCGAGCGCTGCATTGCTACTGTACCGCGCGGAGTCACCTAGTGCAG,8160 fluorescence intensity (a.u.)
5,GGACTTATACCTATTTTTACCTTACAAGTATTCCTTTGGACGGAGTCACCTAGTGCAG,8560 fluorescence intensity (a.u.)
6,TTATTTCGGAACAAAAGGGCGGGGTCAAAAATAAAAACTTCGGAGTCACCTAGTGCAG,8380 fluorescence intensity (a.u.)
7,CTTATCGCTTTCTCCTCGTTGTCTCCGCGCGCGCTCTCTCCGGAGTCACCTAGTGCAG,8200 fluorescence intensity (a.u.)
8,CCCACCACCCGCCACCCGCCATCGCTCCACCCACCGCCCGCGGAGTCACCTAGTGCAG,11900 fluorescence intensity (a.u.)
9,GATGAATTTGCCGTTCCCTGTTCAAAATTTGACGTTCGCTCGGAGTCACCTAGTGCAG,10400 fluorescence intensity (a.u.)
10,TTGCTGCTGTCACATTGTTTTCCTTTGATTTTGTGTTTCGCGGAGTCACCTAGTGCAG,11800 fluorescence intensity (a.u.)
11,GTTTACCTTTTGAACTCTTCTACTACATTTTTGCTGTTTACGGAGTCACCTAGTGCAG,9800 fluorescence intensity (a.u.)
12,TGCTGCTGCTGACGTGGCTCCCGCATCTGCCGCGCGCTATCGGAGTCACCTAGTGCAG,8080 fluorescence intensity (a.u.)
13,TCATGGTGCATGATCTAATTACTGGCTTCTATCCTTCTCACGGAGTCACCTAGTGCAG,8980 fluorescence intensity (a.u.)
14,CTTTTTCATTTTTTATCGTTTGTTGTACCTCACTCTTCTACGGAGTCACCTAGTGCAG,8590 fluorescence intensity (a.u.)
15,AGGTTTCTTGGGTTTTGTTTAGGTAAAAGTTTAGCTTTGCCGGAGTCACCTAGTGCAG,8030 fluorescence intensity (a.u.)
16,AACAGGGGACGCGGATTATCATCTTTTCTATTTCCTATTTCGGAGTCACCTAGTGCAG,9690 fluorescence intensity (a.u.)
17,GCAGTACAGTACATATAATTTACTCTATACTCTCTCCGTACGGAGTCACCTAGTGCAG,9840 fluorescence intensity (a.u.)
18,CCCGATGACCACCCTACGCTAGCAATCTTCCTCTTGTCGTCGGAGTCACCTAGTGCAG,8460 fluorescence intensity (a.u.)
19,TCGCCCAGCGTACTGCCACCTTTTGTCTACTGCGCCTACCCGGAGTCACCTAGTGCAG,9330 fluorescence intensity (a.u.)
20,AATTCCAGACAAGAGCCATCAAAGCATATACTCTCTCTCTCGGAGTCACCTAGTGCAG,8390 fluorescence intensity (a.u.)
21,CGGGCAGGTTGTCGCCGTCATCGTGTGGTGCGATTGCAATCGGAGTCACCTAGTGCAG,8150 fluorescence intensity (a.u.)

# A second format for some results above.
row	Sequence	binding signal
9	GATGAATTTGCCGTTCCCTGTTCAAAATTTGACGTTCGCTCGGAGTCACCTAGTGCAG	10400 fluorescence intensity (a.u.)
16	AACAGGGGACGCGGATTATCATCTTTTCTATTTCCTATTTCGGAGTCACCTAGTGCAG	9690 fluorescence intensity (a.u.)
17	GCAGTACAGTACATATAATTTACTCTATACTCTCTCCGTACGGAGTCACCTAGTGCAG	9840 fluorescence intensity (a.u.)

# Next part

row,Sequence,binding signal
1,TCAGTGTGTGTGTGTCGTGCTGCTGCATGTGTGCGTACGTCGGAGTCACCTAGTGCAG,11000 fluorescence intensity (a.u.)
2,CCGGTATTGATGTGTTCCCCAAGCCAAAAAAAAAAAGAAGCGGAGTCACCTAGTGCAG,64800 fluorescence intensity (a.u.)
3,ACCTCTCGTTCTCCTGGCCGTCGTCGGTGGTGGCCGGCGGCGGAGTCACCTAGTGCAG,8620 fluorescence intensity (a.u.)
4,AAGTCACACATAAAGTACTGTTCATATTTCATCATCTAATCGGAGTCACCTAGTGCAG,9530 fluorescence intensity (a.u.)
5,TAGCTGGTGACGGAAGATATTTCCTACTTTATATCTCTTTCGGAGTCACCTAGTGCAG,9000 fluorescence intensity (a.u.)
6,AATTGGGGTTGTTCGGTAGCTAAGTGTACCTTGATTACAACGGAGTCACCTAGTGCAG,10000 fluorescence intensity (a.u.)
7,TGTTTAAACTGTTGTTATGGTTAGTTCGGTCTATAACCGACGGAGTCACCTAGTGCAG,9100 fluorescence intensity (a.u.)
8,TTCCATGACACATCCTCCTGATCTTGGCATATTTGCCCTCCGGAGTCACCTAGTGCAG,9300 fluorescence intensity (a.u.)
9,ATATCTCGCGTCGTCGCTCGCCGCTCGCCATAGCATCTCCCGGAGTCACCTAGTGCAG,11800 fluorescence intensity (a.u.)
10,ACATGAGCCCAAACCGTCCCATTTCCTATTATTGCCACTCCGGAGTCACCTAGTGCAG,10100 fluorescence intensity (a.u.)
11,GGGAGGCTTTGTTCTAGCTTGTACACCAGAGATTCAGAAACGGAGTCACCTAGTGCAG,9840 fluorescence intensity (a.u.)
12,GTCACATTCGCCGCCCTCTGGGAGGGCGATTTTTAAAAATCGGAGTCACCTAGTGCAG,9320 fluorescence intensity (a.u.)
13,CTATCTTGATGTTCATTGACCATGTTCCTCCAAACCCCTACGGAGTCACCTAGTGCAG,9150 fluorescence intensity (a.u.)
14,CGCACTGACCCGTACAGCACTCAACTCTCTCTCTAACCTTCGGAGTCACCTAGTGCAG,8330 fluorescence intensity (a.u.)
15,AACCAAGGTGACCACCATTTTCTTTTTTTTTTCTTTTTGCCGGAGTCACCTAGTGCAG,9420 fluorescence intensity (a.u.)
16,AGATAGTTTCTCCACTAGTGTTAGTTATCTTGGTTAGATACGGAGTCACCTAGTGCAG,9130 fluorescence intensity (a.u.)
17,CATGACTTTATATAATTTTTTTATTCGCGACATCTGAATCCGGAGTCACCTAGTGCAG,9030 fluorescence intensity (a.u.)
18,GCCGTTCCTCGCCTGCATCTCGTTCCCCGGCGCCATTACTCGGAGTCACCTAGTGCAG,9250 fluorescence intensity (a.u.)
19,GTCGGTGTATCTAGTACCACGTTCTTGCTACTAATTACCACGGAGTCACCTAGTGCAG,8040 fluorescence intensity (a.u.)
20,CTTTTTTTTGTGGAGGGAGATGGAGTGGGGAGGGCACTTGCGGAGTCACCTAGTGCAG,12300 fluorescence intensity (a.u.)
21,TTGTGTAGGTTTTGTTTCTTTCTTCTTTTTTCGAAAAGAGCGGAGTCACCTAGTGCAG,8940 fluorescence intensity (a.u.)
